According to paper PMC11240526:
These are yes or no findings as the source states them, for the method shown. In cells and extracts the contact can be indirect. Here binding means that the protein was enriched with, or labelled near, the bait; the list need not be complete.

By UniProt entry, the sequences of proteins in these tests, tags left out. Residues count along the entry.
UniProt P11912, residues 33-226: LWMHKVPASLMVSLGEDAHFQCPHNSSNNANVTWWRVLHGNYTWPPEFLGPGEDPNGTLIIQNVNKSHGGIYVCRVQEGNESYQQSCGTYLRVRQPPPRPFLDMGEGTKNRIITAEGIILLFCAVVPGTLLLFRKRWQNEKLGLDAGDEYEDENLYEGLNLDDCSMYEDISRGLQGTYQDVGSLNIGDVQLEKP
UniProt P40259, residues 29-229: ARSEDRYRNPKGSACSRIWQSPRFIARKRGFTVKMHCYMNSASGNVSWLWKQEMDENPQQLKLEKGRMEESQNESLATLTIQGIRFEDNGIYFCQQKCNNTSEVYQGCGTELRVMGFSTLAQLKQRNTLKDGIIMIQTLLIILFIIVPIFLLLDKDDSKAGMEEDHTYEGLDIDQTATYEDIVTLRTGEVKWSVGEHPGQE

Target: CD79a (human (endogenous in Raji)) (UniProt P11912)
Assay: cross-linking + affinity purification with mass spectrometry; hypotonic lysate of Raji cells cross-linked with 5 mM DSSO, 30 min at RT; membrane fraction solubilised in 0.5% DOC lysis buffer; anti-CD79a pull-down on Protein G agarose beads; SDS-PAGE bands A-F digested in gel, MS1 identification …; no negative control antibody

Substance: CD79b (from UniProt P40259 29-229)
- binding: binds
